# Patent publication US12077555B2, “STAT degraders and uses thereof” (Kymera Therapeutics, Inc., priority 2019, dated 2024)
# Amino acid sequences for entries named in this document (tags omitted).
# UniProt P40763, whole entry: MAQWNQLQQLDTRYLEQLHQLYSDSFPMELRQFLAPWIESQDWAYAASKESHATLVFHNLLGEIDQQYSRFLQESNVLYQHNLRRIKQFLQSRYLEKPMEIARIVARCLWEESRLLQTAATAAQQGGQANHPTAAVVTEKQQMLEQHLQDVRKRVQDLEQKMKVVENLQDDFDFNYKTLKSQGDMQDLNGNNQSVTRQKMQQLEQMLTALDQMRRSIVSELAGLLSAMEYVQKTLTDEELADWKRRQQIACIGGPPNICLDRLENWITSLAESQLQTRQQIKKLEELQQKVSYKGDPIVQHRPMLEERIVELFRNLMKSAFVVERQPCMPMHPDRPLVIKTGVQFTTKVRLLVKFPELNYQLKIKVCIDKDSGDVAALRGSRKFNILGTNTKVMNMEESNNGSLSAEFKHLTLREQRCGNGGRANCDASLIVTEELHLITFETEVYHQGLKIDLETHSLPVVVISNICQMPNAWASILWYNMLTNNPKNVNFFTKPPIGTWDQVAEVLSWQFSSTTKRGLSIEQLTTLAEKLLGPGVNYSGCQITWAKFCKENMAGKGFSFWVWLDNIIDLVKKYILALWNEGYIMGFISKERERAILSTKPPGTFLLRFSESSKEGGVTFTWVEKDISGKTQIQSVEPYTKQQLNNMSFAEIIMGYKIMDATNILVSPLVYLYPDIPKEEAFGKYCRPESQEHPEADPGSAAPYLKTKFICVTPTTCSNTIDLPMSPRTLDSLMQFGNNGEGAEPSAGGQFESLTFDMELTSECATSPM
# Biological target: STAT3 (Homo sapiens, UniProt P40763)
# Test: Deep tandem mass tag proteomics
# Settings: Molm-16 and SU-DHL-1 cells, 8 hours, FIGS. 4 and 13
# Description: Total protein was isolated from cells (e.g., Molm-16 and SU-DHL-1) and treated with degrader for 8 hours. Vehicle (DMSO)-treated cells were used as controls. Protein lysates, 2 biological replicates per condition, were prepared at 4 C in 8M urea, 75 mM NaCl, 1 mM EDTA in 50 mM Tris HCl (pH 8), 10 mM NaF, phosphatase inhibitor cocktail 2 (1:100; Sigma, P5726) and cocktail 3 (1:100; Sigma, P0044), 2 μg/mL aprotinin (Sigma, A6103), 10 μg/mL Leupeptin (Roche, 11017101001), and 1 mM PMSF (Sigma, 78830). Lysates were spun at 20,000 rcf for 10 min and supernatant (containing extracted proteins) was transferred to a clean microcentrifuge tube. Protein concentrations were determined using the Pierce BCA assay. Protein lysates were reduced with 5 mM dithiothreitol (Thermo Scientific, 20291) for 45 min at room temperature and alkylated with 10 mM iodoacetamide (Sigma, A3221) for an additional 45 min. […] Online fractionation was performed using a nanoflow Proxeon EASY-nLC 1200 UHPLC system (Thermo Fisher Scientific) and separated peptides were analyzed on a benchtop Orbitrap Q Exactive plus mass spectrometer (Thermo Fisher Scientific). All data were analyzed using Spectrum Mill software package (Agilent Technologies). […] In total, 10,992 proteins were quantified. […]
smiles,measurement,value
Cn1c(=O)n(C2CCC(=O)NC2=O)c2ccc(CCCCCCC(=O)N3CC[C@H]4CC[C@@H](C(=O)N[C@@H](CCC(N)=O)C(=O)NC(c5ccccc5)c5ccccc5)N4C(=O)[C@@H](NC(=O)c4cc5cc(C(=O)P(=O)(O)O)ccc5[nH]4)C3)cc21 (stereo partly shown),"selectivity of degradation for STAT3 vs >10,000 other detected proteins",highly selective for STAT3

# The structures given here were assigned with low confidence; some may be wrong.
